For assay [1], the target named is Epidermal growth factor receptor (EGFR) (human (endogenous in A549, H460 and MDA-MB-468)) (UniProt P00533). The assay is described as follows: co-IP; as a1, but MDA-MB-468 cells treated with the small molecule EE02 (10 uM) for 24 h before lysis; anti-EGFR immunoprecipitation, anti-Eps8 blot.
Assay [2] shares this target. As to the kind of experiment: co-IP; endogenous proteins; anti-EGFR antibody (or IgG) coupled to AminoLink plus resin (Pierce CoIP kit), 1000 ug lysate of A549, H460 or MDA-MB-468 cells, incubated 2 h at room temperature; immunoblot with anti-Eps8; cells untreated or treated with DMSO. For orientation: A western blot detects proteins with antibodies after separation by electrophoresis.

Chains of the proteins cited; added tags and fusions are not shown.
UniProt Q12929: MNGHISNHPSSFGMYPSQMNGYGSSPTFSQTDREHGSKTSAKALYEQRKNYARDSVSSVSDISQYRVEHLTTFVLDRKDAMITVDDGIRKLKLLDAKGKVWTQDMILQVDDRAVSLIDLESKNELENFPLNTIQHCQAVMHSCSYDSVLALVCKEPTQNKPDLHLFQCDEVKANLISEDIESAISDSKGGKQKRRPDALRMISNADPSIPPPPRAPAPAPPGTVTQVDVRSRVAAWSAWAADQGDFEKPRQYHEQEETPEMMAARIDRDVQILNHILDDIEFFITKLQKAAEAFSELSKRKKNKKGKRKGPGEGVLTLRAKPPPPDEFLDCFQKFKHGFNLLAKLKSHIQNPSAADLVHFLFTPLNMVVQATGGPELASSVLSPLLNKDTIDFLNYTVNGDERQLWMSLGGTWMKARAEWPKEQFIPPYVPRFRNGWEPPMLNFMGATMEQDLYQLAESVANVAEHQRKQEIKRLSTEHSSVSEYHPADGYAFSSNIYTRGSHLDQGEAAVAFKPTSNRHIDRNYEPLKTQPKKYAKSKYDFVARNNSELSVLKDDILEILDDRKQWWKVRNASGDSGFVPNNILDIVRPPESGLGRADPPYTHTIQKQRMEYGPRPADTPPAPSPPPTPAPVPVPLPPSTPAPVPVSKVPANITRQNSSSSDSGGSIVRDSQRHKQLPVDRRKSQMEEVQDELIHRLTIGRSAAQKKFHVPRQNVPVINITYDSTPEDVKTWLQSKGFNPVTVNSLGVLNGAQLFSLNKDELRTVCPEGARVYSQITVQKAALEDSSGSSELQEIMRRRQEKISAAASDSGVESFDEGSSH

These are yes or no findings as the source states them, for the method shown. In cells and extracts the contact can be indirect. Some entries that bind do so weakly or less than the wild type.

For “Epidermal growth factor receptor pathway substrate 8 (Eps8) (from UniProt Q12929 1-822)”, the binding result in assay [1] is “binds weakly”; in assay [2] it was “binds”.
